Common to all, as to format: cell-based
The target of test [1] is T1, RNA polymerase II (Mus musculus) (UniProt P08775+Q8CFI7+P97760+A0A3Q4L2S8+Q80UW8+P61219+P62488+Q923G2+P60898+O08740+Q63871+P62876). In words: Inhibition of RNA polymerase II in mouse B16-F1 migrating cells assessed as fold change in Rab4a-RNA stability at 0.1 mM measured by ChIP-seq analysis relative to control cells.
The target in test [2] is T1, RNA polymerase II (Mus musculus). As to the kind of experiment: Inhibition of RNA polymerase II in mouse B16-F1 migrating cells assessed as fold change in Plekha6-RNA stability at 0.1 mM measured by ChIP-seq analysis relative to control cells.
Test [3] has the same target. As to the kind of experiment: Inhibition of RNA polymerase II in mouse B16-F1 migrating cells assessed as fold change in Ice1-RNA stability at 0.1 mM measured by ChIP-seq analysis relative to control cells.
Test [4] shares this target. As to the kind of experiment: Inhibition of RNA polymerase II in mouse B16-F1 migrating cells assessed as fold change in Car9-RNA stability at 0.1 mM measured by ChIP-seq analysis relative to control cells.
Test [5] has the same target. In words: Inhibition of RNA polymerase II in mouse B16-F1 migrating cells assessed as fold change in Mrpl54-RNA stability at 0.1 mM measured by ChIP-seq analysis relative to control cells.
Test [6] shares this target. In words: Inhibition of RNA polymerase II in mouse B16-F1 migrating cells assessed as fold change in Prkce-RNA stability at 0.1 mM measured by ChIP-seq analysis relative to control cells.
The target is the same in test [7]. As to the kind of experiment: Inhibition of RNA polymerase II in mouse B16-F1 migrating cells assessed as fold change in Erbin-RNA stability at 0.1 mM measured by ChIP-seq analysis relative to control cells.
The target is the same in test [8]. As to the kind of experiment: Inhibition of RNA polymerase II in mouse B16-F1 migrating cells assessed as fold change in Cnot6l-RNA stability at 0.1 mM measured by ChIP-seq analysis relative to control cells.
Test [9] has the same target. In words: Inhibition of RNA polymerase II in mouse B16-F1 migrating cells assessed as fold change in Caap1-RNA stability at 0.1 mM measured by ChIP-seq analysis relative to control cells.
Test [10] shares this target. In words: Inhibition of RNA polymerase II in mouse B16-F1 migrating cells assessed as fold change in Zfp472-RNA stability at 0.1 mM measured by ChIP-seq analysis relative to control cells.
Test [11] has the same target. In words: Inhibition of RNA polymerase II in mouse B16-F1 migrating cells assessed as fold change in Prr13-RNA stability at 0.1 mM measured by ChIP-seq analysis relative to control cells.
Test [12] shares this target. In words: Inhibition of RNA polymerase II in mouse B16-F1 migrating cells assessed as fold change in Fam57a-RNA stability at 0.1 mM measured by ChIP-seq analysis relative to control cells.
For test [13] the target is unchanged. In words: Inhibition of RNA polymerase II in mouse B16-F1 migrating cells assessed as fold change in Htra3-RNA stability at 0.1 mM measured by ChIP-seq analysis relative to control cells.
Test [14] has the same target. As to the kind of experiment: Inhibition of RNA polymerase II in mouse B16-F1 migrating cells assessed as fold change in Mfsd14b-RNA stability at 0.1 mM measured by ChIP-seq analysis relative to control cells.
Test [15] has the same target. In words: Inhibition of RNA polymerase II in mouse B16-F1 migrating cells assessed as fold change in Map4k5-RNA stability at 0.1 mM measured by ChIP-seq analysis relative to control cells.
The target is the same in test [16]. As to the kind of experiment: Inhibition of RNA polymerase II in mouse B16-F1 migrating cells assessed as fold change in Morn2-RNA stability at 0.1 mM measured by ChIP-seq analysis relative to control cells.
For test [17] the target is unchanged. As to the kind of experiment: Inhibition of RNA polymerase II in mouse B16-F1 migrating cells assessed as fold change in Lxn-RNA stability at 0.1 mM measured by ChIP-seq analysis relative to control cells.
Test [18] addresses Histone-lysine N-methyltransferase EZH2 (Mus musculus) (UniProt Q61188). In words: Inhibition of EZH2 in mouse B16-F1 migrating cells assessed as fold change in H3K27me3-buffered regulated Gclm-mRNA expression at 3 uM measured by ChIP-seq analysis relative to control cells.
Test [19] has the same target. In words: Inhibition of EZH2 in mouse B16-F1 migrating cells assessed as fold change in H3K27me3-dependent regulated Glt1d1-mRNA expression at 3 uM measured by ChIP-seq analysis relative to control cells.
Test [20] has the same target. In words: Inhibition of EZH2 in mouse B16-F1 migrating cells assessed as fold change in H3K27me3-buffered regulated Bdp1-mRNA expression at 3 uM measured by ChIP-seq analysis relative to control cells.
The target is the same in test [21]. As to the kind of experiment: Inhibition of EZH2 in mouse B16-F1 migrating cells assessed as fold change in H3K27me3-buffered regulated Zc3h11a-mRNA expression at 3 uM measured by ChIP-seq analysis relative to control cells.
Test [22] shares this target. In words: Inhibition of EZH2 in mouse B16-F1 migrating cells assessed as fold change in H3K27me3-independent regulated Zfp654-mRNA expression at 3 uM measured by ChIP-seq analysis relative to control cells.
Test [23] shares this target. In words: Inhibition of EZH2 in mouse B16-F1 migrating cells assessed as fold change in H3K27me3-buffered regulated Plekha7-mRNA expression at 3 uM measured by ChIP-seq analysis relative to control cells.
Test [24] has the same target. As to the kind of experiment: Inhibition of EZH2 in mouse B16-F1 migrating cells assessed as fold change in H3K27me3-buffered regulated Col1a2-mRNA expression at 3 uM measured by ChIP-seq analysis relative to control cells.
For test [25] the target is unchanged. In words: Inhibition of EZH2 in mouse B16-F1 migrating cells assessed as fold change in H3K27me3-independent regulated Sapcd2-mRNA expression at 3 uM measured by ChIP-seq analysis relative to control cells.
Test [26] shares this target. In words: Inhibition of EZH2 in mouse B16-F1 migrating cells assessed as fold change in H3K27me3-independent regulated Atf3-mRNA expression at 3 uM measured by ChIP-seq analysis relative to control cells.
For test [27] the target is unchanged. In words: Inhibition of EZH2 in mouse B16-F1 migrating cells assessed as fold change in H3K27me3-buffered regulated Ccdc74a-mRNA expression at 3 uM measured by ChIP-seq analysis relative to control cells.
Test [28] shares this target. In words: Inhibition of EZH2 in mouse B16-F1 migrating cells assessed as fold change in H3K27me3-independent regulated Espn-mRNA expression at 3 uM measured by ChIP-seq analysis relative to control cells.
Test [29] has the same target. In words: Inhibition of EZH2 in mouse B16-F1 migrating cells assessed as fold change in H3K27me3-buffered regulated Hist1h1c-mRNA expression at 3 uM measured by ChIP-seq analysis relative to control cells.
Test [30] has the same target. In words: Inhibition of EZH2 in mouse B16-F1 migrating cells assessed as fold change in H3K27me3-buffered regulated Gm37422-mRNA expression at 3 uM measured by ChIP-seq analysis relative to control cells.

Chains of the proteins cited; added tags and fusions are not shown.
UniProt Q61188, whole entry: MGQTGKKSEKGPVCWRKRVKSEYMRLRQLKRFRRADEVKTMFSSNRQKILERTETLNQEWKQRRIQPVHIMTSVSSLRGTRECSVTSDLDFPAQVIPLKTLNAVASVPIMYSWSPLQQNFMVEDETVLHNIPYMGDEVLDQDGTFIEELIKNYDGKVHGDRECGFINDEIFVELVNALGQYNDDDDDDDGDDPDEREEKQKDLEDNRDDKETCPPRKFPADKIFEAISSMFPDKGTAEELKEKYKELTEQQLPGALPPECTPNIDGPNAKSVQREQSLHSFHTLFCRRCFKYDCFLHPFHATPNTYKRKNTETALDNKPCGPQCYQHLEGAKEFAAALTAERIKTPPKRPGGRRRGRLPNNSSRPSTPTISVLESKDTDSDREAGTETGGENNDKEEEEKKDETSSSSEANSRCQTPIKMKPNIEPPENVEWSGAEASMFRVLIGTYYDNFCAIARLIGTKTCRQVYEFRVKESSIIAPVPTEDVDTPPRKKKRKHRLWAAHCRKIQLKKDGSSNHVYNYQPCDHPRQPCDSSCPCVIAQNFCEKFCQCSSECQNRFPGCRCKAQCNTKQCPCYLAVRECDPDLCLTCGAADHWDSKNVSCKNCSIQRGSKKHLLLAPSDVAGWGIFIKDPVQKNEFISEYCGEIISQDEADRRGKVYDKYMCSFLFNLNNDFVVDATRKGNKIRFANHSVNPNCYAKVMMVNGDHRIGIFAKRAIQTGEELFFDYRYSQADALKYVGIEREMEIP

Each structure is given as a SMILES string. Further values from the same series stand in other lists.

In the case of `OC[C@H]1O[C@@H](n2cnc3cc(Cl)c(Cl)cc32)[C@H](O)[C@@H]1O`, the log2FC was 0.58 in test [1]; 1.09 in test [2]; -0.53 in test [3]; 1.15 in test [4]; 0.55 in test [5]; -0.56 in [6]. Also, the log2FC in test [7] is -0.79; in test [8] it was -0.6; in test [9], -0.75; in test [10] it was -0.81; in [11] it was 0.47; in test [12] it was 0.45. Moreover, the log2FC in [13] is 0.82; in [14] it was -0.49; in test [15], -0.54; in test [16], 0.82; in [17], 0.54.

As for `CCCc1cc(C)[nH]c(=O)c1CNC(=O)c1cc(-c2ccnc(N3CCN(C)CC3)c2)cc2c1cnn2C(C)C`, the log2FC in test [18] is 0.48; in [19], -0.49; in test [20], -0.41; in [21], -0.38; in [22], -0.43; in [23], -0.5. Also, the log2FC is -0.76 in [24]; -0.55 in [25]; 0.57 in [26]; -0.63 in [27]; 0.79 in test [28]; 0.43 in [29]. In [30], the log2FC was -0.61.

For the origin of these results see ChEMBL document CHEMBL5674883, “The Heterochromatin Landscape in Migrating Cells and the Importance of H3K27me3 for Associated Transcriptome Alterations” (Cells, 2018).
